# According to the supplement of paper PMC8256030:
# Where “and” joins values, the source holds several entries; their conditions need not be identical. Identical values can stand only once. This is one part of the list. Repeats in this data set agree poorly, so a single value says little.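 HEK293T cells were given each compound shortly before transfection with a reporter in which red mCherry is followed by the SARS-CoV-2 frameshift element and then GFP in the −1 frame, so GFP appears only after frameshifting.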
# Key:
# [1] = system: SARS-CoV-2 -1 PRF reporter mCherry-FSE-GFP(-1); test: mCherry (red) intensity as percent of control; higher = higher upstream reporter expression; settings: 10 µM; 24 h; HEK293T
# [2] = system: SARS-CoV-2 -1 PRF reporter mCherry-FSE-GFP(-1); test: percent effect, decrease of GFP/mCherry ratio (-1 PRF reporter) relative to controls; higher = stronger frameshift inhibition; settings: 10 µM; 24 h; HEK293T
Compound,mCherry [1],percent effect [2]
CN1CC(O)c2cc(N=NC(N)=O)c(O)cc21 (centres undefined) [carbazochrome],91.2%,-2.73%
CN(C)CCc1c[nH]c2ccc(Cn3cncn3)cc12 [rizatriptan],110%,3.96%
C[C@H]1O[C@@H](O[C@H]2[C@@H](O)C[C@H](O[C@H]3[C@@H](O)C[C@H](O[C@H]4CC[C@@]5(C)[C@H](CC[C@@H]6[C@@H]5CC[C@]5(C)[C@@H](C7=CC(=O)OC7)CC[C@]65O)C4)O[C@@H]3C)O[C@@H]2C)C[C@H](O)[C@@H]1O [Digitoxin],13.4%,-10.7%
COc1ccc(Cl)cc1C(=O)NCCc1ccc(C(=O)O)cc1 [meglitinide],96.9%,1.84%
NCC(O)CC(=O)O (centres undefined),105%,-0.894%
COc1ccccc1N1CCN(CC(O)COc2cccc3ccccc23)CC1 (centres undefined) [naftopidil],92% and 77.8%,-1.16% and 3.1%
COc1ccc2c(c1)C(=O)N(CCc1ccc(S(=O)(=O)NC(=O)NC3CCCCC3)cc1)C(=O)C2(C)C [gliquidone],89.9%,-5.91%
CCOC(=O)c1cnc2cc(OCC(C)C)c(OCC(C)C)cc2c1O [buquinolate],81.2%,-7.52%
CC(=O)OCC1=C(C(=O)O)N2C(=O)[C@@H](NC(=O)CSc3ccncc3)[C@H]2SC1,128%,1.86%
CCN(CC)CCOCCOC(=O)C1(c2ccccc2)CCCC1 [pentoxyverine],88.2%,-5.34%
Cc1oc(=O)oc1CN1CCN(c2cc3c(cc2F)c(=O)c(C(=O)O)c2n3C(C)S2)CC1 (centres undefined),107%,0.459%
O=C(OCCOCCO)c1ccccc1Nc1cccc(C(F)(F)F)c1 [etofenamate],93.7%,0.64%
